Article PMC11809382
No constants are given. Whether binding was seen depends on the method and setting. Binding seen in cells or lysates may run through a third protein. Some results given as binding are weak or reduced against the parent protein; the word gives no strength. For some assays here: Tags and fused reporters may be left off the sequences shown. Blank lines part the entries; values can stand above or below the molecule they belong to.

Protein sequences, listed by entry. Tags and fused reporters are not part of them. Residues count along the entry.
UniProt A2ARV4, residues 26-4660: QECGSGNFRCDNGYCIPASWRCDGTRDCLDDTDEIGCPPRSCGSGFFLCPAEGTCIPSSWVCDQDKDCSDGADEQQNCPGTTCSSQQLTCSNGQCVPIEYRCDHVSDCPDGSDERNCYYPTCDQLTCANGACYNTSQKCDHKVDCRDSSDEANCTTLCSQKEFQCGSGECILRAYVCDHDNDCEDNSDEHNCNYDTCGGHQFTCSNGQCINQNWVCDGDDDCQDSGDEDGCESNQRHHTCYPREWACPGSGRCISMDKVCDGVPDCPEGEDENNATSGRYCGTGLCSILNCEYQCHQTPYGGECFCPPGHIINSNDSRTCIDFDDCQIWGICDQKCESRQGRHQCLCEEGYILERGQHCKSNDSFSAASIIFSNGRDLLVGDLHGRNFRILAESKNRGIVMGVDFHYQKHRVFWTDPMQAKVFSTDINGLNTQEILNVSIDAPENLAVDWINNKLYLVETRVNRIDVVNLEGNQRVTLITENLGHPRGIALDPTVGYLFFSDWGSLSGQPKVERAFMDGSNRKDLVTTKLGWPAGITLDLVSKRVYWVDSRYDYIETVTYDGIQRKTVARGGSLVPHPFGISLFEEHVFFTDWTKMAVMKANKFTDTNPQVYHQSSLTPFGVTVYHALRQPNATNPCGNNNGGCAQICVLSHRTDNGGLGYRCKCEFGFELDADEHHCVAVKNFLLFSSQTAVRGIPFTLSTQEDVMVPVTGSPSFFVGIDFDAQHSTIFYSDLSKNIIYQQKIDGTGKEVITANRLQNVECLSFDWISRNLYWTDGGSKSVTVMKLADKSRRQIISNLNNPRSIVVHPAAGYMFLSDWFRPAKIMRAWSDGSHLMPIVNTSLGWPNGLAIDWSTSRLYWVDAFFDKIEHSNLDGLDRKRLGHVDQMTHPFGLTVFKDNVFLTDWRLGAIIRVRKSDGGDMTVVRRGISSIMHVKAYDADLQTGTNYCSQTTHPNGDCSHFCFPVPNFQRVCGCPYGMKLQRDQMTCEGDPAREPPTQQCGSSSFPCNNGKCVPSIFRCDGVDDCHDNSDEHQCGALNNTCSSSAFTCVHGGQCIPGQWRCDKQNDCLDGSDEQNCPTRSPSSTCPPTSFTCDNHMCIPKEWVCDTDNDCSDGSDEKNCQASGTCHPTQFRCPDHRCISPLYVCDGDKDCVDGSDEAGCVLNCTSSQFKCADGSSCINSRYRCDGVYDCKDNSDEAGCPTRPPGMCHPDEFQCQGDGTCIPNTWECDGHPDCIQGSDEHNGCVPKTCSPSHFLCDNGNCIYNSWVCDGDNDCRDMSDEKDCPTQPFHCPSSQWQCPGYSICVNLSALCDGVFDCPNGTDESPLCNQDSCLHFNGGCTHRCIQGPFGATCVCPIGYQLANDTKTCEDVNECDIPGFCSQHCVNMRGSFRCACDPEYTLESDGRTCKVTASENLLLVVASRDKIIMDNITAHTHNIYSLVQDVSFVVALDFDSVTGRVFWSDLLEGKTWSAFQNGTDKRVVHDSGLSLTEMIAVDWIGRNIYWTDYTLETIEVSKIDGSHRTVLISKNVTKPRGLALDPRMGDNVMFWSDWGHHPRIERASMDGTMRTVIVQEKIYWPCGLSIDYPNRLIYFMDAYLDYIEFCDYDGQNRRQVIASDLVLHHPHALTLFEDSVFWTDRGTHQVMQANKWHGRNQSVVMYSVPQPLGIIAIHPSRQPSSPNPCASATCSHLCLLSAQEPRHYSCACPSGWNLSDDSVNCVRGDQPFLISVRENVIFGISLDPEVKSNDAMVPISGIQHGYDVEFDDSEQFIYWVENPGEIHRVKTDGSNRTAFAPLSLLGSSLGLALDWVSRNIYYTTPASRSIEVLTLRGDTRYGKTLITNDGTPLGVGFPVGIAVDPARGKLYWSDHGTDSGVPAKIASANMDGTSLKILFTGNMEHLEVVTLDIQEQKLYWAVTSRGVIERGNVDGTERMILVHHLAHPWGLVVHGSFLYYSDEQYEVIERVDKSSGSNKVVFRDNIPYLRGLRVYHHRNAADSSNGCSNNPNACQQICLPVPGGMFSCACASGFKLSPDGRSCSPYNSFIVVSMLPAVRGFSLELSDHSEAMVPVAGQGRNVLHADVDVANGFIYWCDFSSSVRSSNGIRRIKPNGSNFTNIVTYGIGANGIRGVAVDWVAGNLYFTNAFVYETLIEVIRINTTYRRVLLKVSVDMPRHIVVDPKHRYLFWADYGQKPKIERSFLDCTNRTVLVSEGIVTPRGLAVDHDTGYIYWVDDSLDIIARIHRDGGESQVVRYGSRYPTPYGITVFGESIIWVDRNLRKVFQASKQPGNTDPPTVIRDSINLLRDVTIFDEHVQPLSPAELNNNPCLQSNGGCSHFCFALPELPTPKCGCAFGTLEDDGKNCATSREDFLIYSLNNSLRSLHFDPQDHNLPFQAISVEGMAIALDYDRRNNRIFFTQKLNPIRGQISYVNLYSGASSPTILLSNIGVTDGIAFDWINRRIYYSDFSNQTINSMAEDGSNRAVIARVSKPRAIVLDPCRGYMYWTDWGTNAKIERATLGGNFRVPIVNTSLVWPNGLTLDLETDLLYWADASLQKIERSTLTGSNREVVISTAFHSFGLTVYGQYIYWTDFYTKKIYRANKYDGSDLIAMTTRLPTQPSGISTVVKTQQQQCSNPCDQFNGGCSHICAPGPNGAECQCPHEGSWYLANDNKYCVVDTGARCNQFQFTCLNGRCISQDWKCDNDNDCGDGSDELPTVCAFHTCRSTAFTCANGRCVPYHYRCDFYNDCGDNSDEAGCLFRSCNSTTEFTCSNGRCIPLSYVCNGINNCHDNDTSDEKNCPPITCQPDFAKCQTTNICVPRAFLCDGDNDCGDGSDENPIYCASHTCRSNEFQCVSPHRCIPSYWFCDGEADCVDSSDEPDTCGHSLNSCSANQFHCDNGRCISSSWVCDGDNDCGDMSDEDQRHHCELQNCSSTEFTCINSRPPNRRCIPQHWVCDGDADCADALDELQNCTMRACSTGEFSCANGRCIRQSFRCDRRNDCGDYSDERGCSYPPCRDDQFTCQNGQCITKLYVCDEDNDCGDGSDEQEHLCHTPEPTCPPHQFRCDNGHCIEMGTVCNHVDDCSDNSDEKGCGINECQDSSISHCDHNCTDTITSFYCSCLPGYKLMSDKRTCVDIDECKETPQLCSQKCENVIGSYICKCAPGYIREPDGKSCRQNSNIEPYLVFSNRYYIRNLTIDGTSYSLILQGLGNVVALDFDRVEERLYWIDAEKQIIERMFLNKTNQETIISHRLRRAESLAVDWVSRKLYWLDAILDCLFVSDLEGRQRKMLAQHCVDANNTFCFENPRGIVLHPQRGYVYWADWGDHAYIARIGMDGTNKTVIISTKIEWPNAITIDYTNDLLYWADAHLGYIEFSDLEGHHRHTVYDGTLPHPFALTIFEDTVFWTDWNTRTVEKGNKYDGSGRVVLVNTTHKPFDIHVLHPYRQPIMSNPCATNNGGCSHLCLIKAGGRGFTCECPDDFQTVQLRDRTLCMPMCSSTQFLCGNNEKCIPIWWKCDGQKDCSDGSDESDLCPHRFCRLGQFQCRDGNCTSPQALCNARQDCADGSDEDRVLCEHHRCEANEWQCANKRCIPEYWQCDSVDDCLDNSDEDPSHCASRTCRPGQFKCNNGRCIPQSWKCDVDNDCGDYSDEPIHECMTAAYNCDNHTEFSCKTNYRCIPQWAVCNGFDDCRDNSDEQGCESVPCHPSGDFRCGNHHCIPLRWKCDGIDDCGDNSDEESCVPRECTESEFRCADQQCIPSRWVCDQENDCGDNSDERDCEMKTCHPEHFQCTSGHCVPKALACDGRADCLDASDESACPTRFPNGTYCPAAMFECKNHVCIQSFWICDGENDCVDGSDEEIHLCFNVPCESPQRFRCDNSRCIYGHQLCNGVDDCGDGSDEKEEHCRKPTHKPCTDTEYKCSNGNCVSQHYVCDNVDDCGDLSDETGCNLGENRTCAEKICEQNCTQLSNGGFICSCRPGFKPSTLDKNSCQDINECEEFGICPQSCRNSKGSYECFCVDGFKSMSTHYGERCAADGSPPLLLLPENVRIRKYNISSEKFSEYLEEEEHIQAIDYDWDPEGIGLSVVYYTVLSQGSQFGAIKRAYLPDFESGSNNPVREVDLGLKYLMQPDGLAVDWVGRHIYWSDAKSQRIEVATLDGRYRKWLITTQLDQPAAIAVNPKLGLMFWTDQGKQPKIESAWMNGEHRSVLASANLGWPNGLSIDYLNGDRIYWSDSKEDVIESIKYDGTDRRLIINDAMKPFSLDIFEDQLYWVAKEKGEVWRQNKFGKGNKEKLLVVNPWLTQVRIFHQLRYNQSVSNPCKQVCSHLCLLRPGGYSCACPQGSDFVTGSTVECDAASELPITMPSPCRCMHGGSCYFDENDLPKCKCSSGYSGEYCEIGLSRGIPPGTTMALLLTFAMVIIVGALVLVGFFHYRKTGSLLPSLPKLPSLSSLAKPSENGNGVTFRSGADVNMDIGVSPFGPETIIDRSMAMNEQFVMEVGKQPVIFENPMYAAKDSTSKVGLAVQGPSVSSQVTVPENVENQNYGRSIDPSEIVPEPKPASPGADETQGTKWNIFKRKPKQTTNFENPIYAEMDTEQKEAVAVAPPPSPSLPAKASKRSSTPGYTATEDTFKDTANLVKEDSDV

Experiments:
[1] = target: T1, glutathione S-transferase (GST)-labeled VDBP protein (UniProt P21614); assay: pull-down; GST-labeled VDBP protein as bait, primary mouse neuron lysate; only the target purified
T1 sequence: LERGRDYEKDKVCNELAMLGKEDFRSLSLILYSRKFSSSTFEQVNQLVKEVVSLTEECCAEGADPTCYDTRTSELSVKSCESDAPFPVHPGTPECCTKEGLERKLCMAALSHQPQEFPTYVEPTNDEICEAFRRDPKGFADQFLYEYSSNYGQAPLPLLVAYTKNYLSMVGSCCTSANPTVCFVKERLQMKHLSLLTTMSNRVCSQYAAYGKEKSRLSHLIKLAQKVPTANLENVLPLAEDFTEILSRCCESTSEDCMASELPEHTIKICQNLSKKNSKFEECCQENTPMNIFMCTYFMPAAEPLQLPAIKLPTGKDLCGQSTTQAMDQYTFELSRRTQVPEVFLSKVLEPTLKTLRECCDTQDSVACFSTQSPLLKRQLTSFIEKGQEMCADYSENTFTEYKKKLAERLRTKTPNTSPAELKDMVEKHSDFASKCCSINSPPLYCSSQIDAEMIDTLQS

[2] = target: megalin (low-density-lipoprotein-receptor-related protein 2, LRP2), neuronal receptor (mouse (endogenous in primary mouse neurons)) (UniProt A2ARV4); assay: proximity ligation; endogenous VDBP and megalin on MAP2-positive primary mouse neurons

binding [1]: binds
Molecule: megalin (low-density-lipoprotein-receptor-related protein 2, LRP2), neuronal receptor (from UniProt A2ARV4 26-4660)

binding [2]: binds
B1: vitamin D binding protein (VDBP), endogenous (ligand, UniProt P21614 17-476)
chain: T1 sequence
